PubChem BioAssay AID652243 – Drosophila RNAi Screening Center – 2013

- Screen: 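Fly genes required for human androgen receptor driven transcription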 (primary screen)
- Cells: Drosophila S2R+ cells
- Reagents: long dsRNA against Drosophila genes
- Time to read-out: 72 h (48 h, then 24 h hormone)
- Challenge: synthetic androgen R1881 at 10 nM for 24 h
- Measurement: 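Per-well raw luminescence of the androgen-driven firefly reporter and of the Renilla control, two replicates each, without normalisation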
- Reading the numbers: firefly reporter light: higher = more light from androgen-responsive reporter; Renilla control light: higher = more constitutive control signal (cell number, transfection)
- Active means: 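Hit when the log firefly-to-Renilla ratio dropped or increased by a fixed fold versus the mean of GFP or LacZ controls across duplicate plates; lowering cut given as 1.5 and as 3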
- Meaning of the calls: active = hit: reporter lowered or raised; inactive = no hit
The deposit covers about 24,000 reagents; below is a random part of those that have a named target and a result. In the full data, 246 (1%) were called active. 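Plates not normalised; calls are printed but the firefly/Renilla ratio behind them is not deposited; fold cut for lowering reported inconsistently.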 Raw values vary from plate to plate and are shown uncorrected. Names joined by + are all predicted targets of the reagent. No sequences are given here. Not stated in the record: the amount of reagent.

gene	DRSC id	firefly reporter light, replicate 1	firefly reporter light, replicate 2	Renilla control light, replicate 1	Renilla control light, replicate 2	Outcome
CG4951	DRSC15682	76912	56687	5.83e5	3.87e5	inactive
CG11629	DRSC03695	1.75e5	2.36e5	9.66e5	1.39e6	inactive
Uhg4 + snoRNA:Psi28S-2949	DRSC36561	7.44e5	7.82e5	1.91e6	1.65e6	inactive
aux (auxilin)	DRSC12161	60912	63613	4.42e5	4.40e5	inactive
aux (auxilin)	DRSC28178	4.71e5	6.02e5	1.11e6	1.03e6	inactive
aux (auxilin)	DRSC37071					inactive
Capa (Capability)	DRSC15058	1.16e5	1.08e5	9.57e5	7.50e5	inactive
Mnat9 (microtubule-associated Nat9)	DRSC14325	2.55e5	1.73e5	1.80e6	3.35e6	inactive
CG6974	DRSC16160	1.12e5	69462	1.95e6	1.52e6	inactive
sns (sticks and stones)	DRSC07687	4.13e5	3.16e5	2.00e6	1.65e6	inactive
sns (sticks and stones)	DRSC07688	2.85e5	3.57e5	2.43e6	3.63e6	inactive
sns (sticks and stones)	DRSC07689	3.97e5	3.75e5	2.45e6	1.94e6	inactive
sns (sticks and stones)	DRSC07691	3.45e5	2.51e5	2.17e6	1.50e6	inactive
CG9166	DRSC07842	77792	1.11e5	8.65e5	1.15e6	inactive
Yp3 (Yolk protein 3)	DRSC20302	2.71e5	3.77e5	2.06e6	2.56e6	inactive
Yp3 (Yolk protein 3)	DRSC25550	3.27e5	2.55e5	6.50e5	4.30e5	inactive
CG17896	DRSC18502	37322	44799	4.60e5	4.28e5	inactive
CG17896	DRSC28472	4.51e5	2.46e5	6.17e5	6.23e5	inactive
CG8993	DRSC08616	74453	65890	1.08e6	1.11e6	inactive
CG8993	DRSC27318	2.30e5	2.25e5	7.95e5	6.02e5	inactive

The list goes on, starting with the last 3 of the part before.
gene	DRSC id	firefly reporter light, replicate 1	firefly reporter light, replicate 2	Renilla control light, replicate 1	Renilla control light, replicate 2	Outcome
CG17896	DRSC28472	4.51e5	2.46e5	6.17e5	6.23e5	inactive
CG8993	DRSC08616	74453	65890	1.08e6	1.11e6	inactive
CG8993	DRSC27318	2.30e5	2.25e5	7.95e5	6.02e5	inactive
CG5623	DRSC15848	2.24e5	1.67e5	3.20e6	2.88e6	inactive
CG33502 + CG32857 + CG32500	DRSC20817	5.75e5	6.91e5	7.04e5	6.72e5	inactive
CG33502 + CG32857 + CG32500	DRSC21038	2.14e5	1.33e5	3.43e5	3.90e5	inactive
CG7173	DRSC23252	9.57e5	1.08e6	1.37e6	1.39e6	inactive
CG7173	DRSC29453	3.31e5	5.76e5	5.34e5	5.34e5	inactive
nAChRbeta3 (nicotinic Acetylcholine Receptor beta3)	DRSC00325	8.56e5	7.05e5	2.73e6	2.02e6	inactive
Nnp-1	DRSC02165	2.00e5	2.03e5	2.15e6	2.20e6	inactive
Nnp-1	DRSC29816	2.93e5	4.66e5	1.08e6	1.18e6	inactive
Or85d (Odorant receptor 85d)	DRSC16767	91355	1.30e5	2.72e6	2.03e6	inactive
Or85d (Odorant receptor 85d)	DRSC26656	2.68e5	3.50e5	6.15e5	6.27e5	inactive
CG16741	DRSC06622	1.27e5	1.03e5	2.10e6	1.55e6	inactive
CG16741	DRSC24117	5.68e5	7.21e5	6.41e5	7.61e5	inactive
CG30103	DRSC06894	1.09e5	98574	1.64e6	1.64e6	inactive
CG30103	DRSC29743	7.54e5	4.83e5	1.50e6	1.59e6	inactive
pnr (pannier)	DRSC17027	51056	77019	9.31e5	1.14e6	inactive
pnr (pannier)	DRSC25347	4.63e5	2.94e5	4.46e5	5.19e5	inactive
CG14985	DRSC08443	1.89e5	2.06e5	2.37e6	3.01e6	inactive
CG31224	DRSC15272	1.81e5	3.02e5	1.28e6	2.46e6	inactive
CG31224	DRSC16290	1.34e5	1.19e5	6.00e5	6.05e5	inactive
INPP5E (Inositol polyphosphate 5-phosphatase E)	DRSC09723	2.20e5	2.39e5	1.84e6	1.63e6	inactive
INPP5E (Inositol polyphosphate 5-phosphatase E)	DRSC36899					inactive
INPP5E (Inositol polyphosphate 5-phosphatase E)	DRSC36900					inactive
Or10a (Odorant receptor 10a)	DRSC20264	3.38e5	5.50e5	2.74e6	4.41e6	inactive
Or10a (Odorant receptor 10a)	DRSC27634	2.42e5	3.02e5	5.19e5	9.00e5	inactive
CG13989	DRSC02321	1.44e5	1.63e5	1.29e6	1.42e6	inactive
Ir48b (Ionotropic receptor 48b)	DRSC06320	3.12e5	2.71e5	1.77e6	1.50e6	inactive
CG3847	DRSC17444	5.89e5	7.64e5	1.90e6	1.71e6	inactive
CG3847	DRSC18327	59619	45556	6.41e5	3.88e5	inactive
CG3847	DRSC26193	5.05e5	5.14e5	5.65e5	4.96e5	inactive
Rox8	DRSC16829	1.73e5	2.88e5	2.20e6	2.52e6	inactive
Rox8	DRSC29536	2.48e5	4.60e5	9.43e5	9.43e5	inactive
Jheh2 (Juvenile hormone epoxide hydrolase 2)	DRSC06530	94712	1.22e5	1.72e6	1.52e6	inactive
Jheh2 (Juvenile hormone epoxide hydrolase 2)	DRSC25496	5.06e5	4.16e5	4.79e5	4.65e5	inactive
CG11149	DRSC02130	1.07e5	1.93e5	7.99e5	7.24e5	inactive
CG8229 + CG33199	DRSC05134	79928	1.42e5	2.38e5	3.23e5	inactive
CG8229 + CG33199	DRSC27680	1.77e5	1.75e5	4.49e5	5.51e5	inactive
AANATL6 (Arylalkylamine N-acetyltransferase-like 6)	DRSC06773	80882	87874	1.03e6	1.23e6	inactive
CG6873	DRSC20014	2.35e5	1.07e5	3.24e5	1.27e5	inactive
